Measured values: patent publication US20180021430A1 (UNIVERSITAETSKLINIKUM FREIBURG, published 2018)
No constants are given. Whether binding was seen depends on the method and setting. Some binding calls cover weakened binding; strength is not graded here.

Protein sequences, listed by entry. Tags and fused reporters are not part of them. Residues count along the entry.
UniProt P29965, residues 108-261: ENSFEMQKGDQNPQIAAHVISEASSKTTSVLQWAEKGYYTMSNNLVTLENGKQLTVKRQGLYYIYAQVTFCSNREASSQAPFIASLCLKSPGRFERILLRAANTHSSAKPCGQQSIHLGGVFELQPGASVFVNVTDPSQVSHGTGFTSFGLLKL

Biological target: CD40L (soluble CD40L used for coating, biotinylation or binding to CD40-Fc; preparation not specified) (UniProt P29965)
Test: solid phase binding assay, peptide immobilized, biotinylated CD40L in solution

binding: binds
B1: peptide M7 (EQLKKSKTL) (peptide)
peptide: EQLKKSKTL
notes: linear fragment of the Mac-1 I-domain, E162-L170
